Measurements reported in PubChem BioAssay AID1224830 (NIAID, 2016).
This is one part, drawn at random, of about 18,000 reagents. Over the whole deposit, about 2,900 (16%) were called active. 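Calls are made per well; low scores hint the gene aids the LPS response, high scores that it dampens it.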 Entries without a mark were called inactive. Repeated entries: four replicate wells of each siRNA pool.

Aim: 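Regulators of TLR4 signalling towards TNF-alpha in macrophage-like cells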 (primary screen)
Cell system: human THP-1 monocytic leukaemia cells, TNF dual-luciferase reporter clone, PMA-differentiated to macrophage-like cells
Reagent: siRNA pool against human genes, 50 nM
Time to read-out: LPS for 4 h, given about 3 days after siRNA transfection
Treatment: bacterial LPS (TLR4 ligand), 10 ng/ml
Read-out: 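Ratio of firefly to renilla light, scaled to the plate median and expressed as a robust z-score per replicate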
Scale: TNF reporter robust z-score: higher = stronger TNF reporter response to LPS
Active means: 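a well is active when its z-score exceeds 2.8 or falls below -1.5; control wells carry no call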

no.	target gene	TNF reporter robust z-score
1	HSD17B1 (GeneID 3292)	0.63
2	HSD17B1 (GeneID 3292)	0.49
3	HSD17B1 (GeneID 3292)	0.46
4	HSD17B1 (GeneID 3292)	0.55
5	OR51E2 (GeneID 81285)	0.58
6	OR51E2 (GeneID 81285)	0.47
7	OR51E2 (GeneID 81285)	-0.19
8	OR51E2 (GeneID 81285)	0.35
9	SSX5 (GeneID 6758)	-0.46
10	SSX5 (GeneID 6758)	0.53
11	SSX5 (GeneID 6758)	1.24
12	SSX5 (GeneID 6758)	1.27
13	ASH2L (GeneID 9070)	-1.3
14	ASH2L (GeneID 9070)	-1.57 (active)
15	ASH2L (GeneID 9070)	-1.36
16	ASH2L (GeneID 9070)	-1.37
17	LRRC37A (GeneID 9884)	0.07
18	LRRC37A (GeneID 9884)	0.92
19	LRRC37A (GeneID 9884)	-0.06
20	LRRC37A (GeneID 9884)	2.17
21	CCDC197 (GeneID 256369)	3.1 (active)
22	CCDC197 (GeneID 256369)	2.97 (active)
23	CCDC197 (GeneID 256369)	4.02 (active)
24	CCDC197 (GeneID 256369)	0.04
25	RARB (GeneID 5915)	-1.08
26	RARB (GeneID 5915)	-0.9
27	RARB (GeneID 5915)	-0.66
28	RARB (GeneID 5915)	-0.57
29	RSPH14 (GeneID 27156)	-0.7
30	RSPH14 (GeneID 27156)	-0.64
31	RSPH14 (GeneID 27156)	-1.06
32	RSPH14 (GeneID 27156)	-0.36
33	COL3A1 (GeneID 1281)	0.21
34	COL3A1 (GeneID 1281)	0.03
35	COL3A1 (GeneID 1281)	0.02
36	COL3A1 (GeneID 1281)	0.06
37	CREB3L4 (GeneID 148327)	0.63
38	CREB3L4 (GeneID 148327)	0.82
39	CREB3L4 (GeneID 148327)	0.92
40	CREB3L4 (GeneID 148327)	0.15
41	ARPP21 (GeneID 10777)	-0.12
42	ARPP21 (GeneID 10777)	0.73
43	ARPP21 (GeneID 10777)	0.37
44	ARPP21 (GeneID 10777)	0.59
45	CCNB2 (GeneID 9133)	-1.41
46	CCNB2 (GeneID 9133)	-1.33
47	CCNB2 (GeneID 9133)	-1.27
48	CCNB2 (GeneID 9133)	-0.68
49	ZW10 (GeneID 9183)	1.82
50	ZW10 (GeneID 9183)	1.75
51	ZW10 (GeneID 9183)	-0.03
52	ZW10 (GeneID 9183)	0.08
53	MIR9-1HG (GeneID 10485)	-0.16
54	MIR9-1HG (GeneID 10485)	-0.61
55	MIR9-1HG (GeneID 10485)	-0.28
56	MIR9-1HG (GeneID 10485)	-0.03
57	SEMA3E (GeneID 9723)	0.3
58	SEMA3E (GeneID 9723)	-0.27
59	SEMA3E (GeneID 9723)	-0.2
60	SEMA3E (GeneID 9723)	-0.32
61	GAS8-AS1 (GeneID 750)	-0.76
62	GAS8-AS1 (GeneID 750)	0.19
63	GAS8-AS1 (GeneID 750)	0
64	GAS8-AS1 (GeneID 750)	-0.01
65	RPA4 (GeneID 29935)	1.68
66	RPA4 (GeneID 29935)	1.12
67	RPA4 (GeneID 29935)	-0.18
68	RPA4 (GeneID 29935)	0.31
69	SLC66A1 (GeneID 54896)	3.96 (active)
70	SLC66A1 (GeneID 54896)	0.13
71	SLC66A1 (GeneID 54896)	0.2
72	SLC66A1 (GeneID 54896)	0.22
73	TXNDC2 (GeneID 84203)	-1.33
74	TXNDC2 (GeneID 84203)	-1.16
75	TXNDC2 (GeneID 84203)	-1.63 (active)
76	TXNDC2 (GeneID 84203)	-1.12
77	XAGE5 (GeneID 170627)	0.5
78	XAGE5 (GeneID 170627)	-0.11
79	XAGE5 (GeneID 170627)	-0.51
80	XAGE5 (GeneID 170627)	-0.84
81	SDAD1 (GeneID 55153)	1.09
82	SDAD1 (GeneID 55153)	0.52
83	SDAD1 (GeneID 55153)	1.21
84	SDAD1 (GeneID 55153)	-0.02
85	C4A (GeneID 720)	-0.91
86	C4A (GeneID 720)	-0.73
87	C4A (GeneID 720)	-1.53 (active)
88	C4A (GeneID 720)	-0.65
89	TNFRSF13B (GeneID 23495)	-0.58
90	TNFRSF13B (GeneID 23495)	0.58
91	TNFRSF13B (GeneID 23495)	1.07
92	TNFRSF13B (GeneID 23495)	-0.11
93	CLEC3A (GeneID 10143)	-1.03
94	CLEC3A (GeneID 10143)	0.16
95	CLEC3A (GeneID 10143)	-0.8
96	CLEC3A (GeneID 10143)	-1.06
97	PMM1 (GeneID 5372)	-0.13
98	PMM1 (GeneID 5372)	1.12
99	PMM1 (GeneID 5372)	-0.25
100	PMM1 (GeneID 5372)	1.44
101	SUV39H2 (GeneID 79723)	-1.75 (active)
102	SUV39H2 (GeneID 79723)	-1.37
103	SUV39H2 (GeneID 79723)	-1.62 (active)
104	SUV39H2 (GeneID 79723)	-1.32
105	FBXO39 (GeneID 162517)	-1.95 (active)
106	FBXO39 (GeneID 162517)	0.67
107	FBXO39 (GeneID 162517)	2.04
108	FBXO39 (GeneID 162517)	1.82
109	WNT6 (GeneID 7475)	0.46
110	WNT6 (GeneID 7475)	2.08
111	WNT6 (GeneID 7475)	0.92
112	WNT6 (GeneID 7475)	0.83
113	OR51F1 (GeneID 256892)	0.58
114	OR51F1 (GeneID 256892)	1.61
115	OR51F1 (GeneID 256892)	3.49 (active)
116	OR51F1 (GeneID 256892)	1.21
117	MARCHF5 (GeneID 54708)	1.82
118	MARCHF5 (GeneID 54708)	0.51
119	MARCHF5 (GeneID 54708)	-2.2 (active)
120	MARCHF5 (GeneID 54708)	-0.81
121	ITGA7 (GeneID 3679)	0.34
122	ITGA7 (GeneID 3679)	7.82 (active)
123	ITGA7 (GeneID 3679)	-0.28
124	ITGA7 (GeneID 3679)	0.64
125	DYDC2 (GeneID 84332)	-0.82
126	DYDC2 (GeneID 84332)	0.95
127	DYDC2 (GeneID 84332)	0.56
128	DYDC2 (GeneID 84332)	-0.25
129	GLI4 (GeneID 2738)	-1.65 (active)
130	GLI4 (GeneID 2738)	-1.37
131	GLI4 (GeneID 2738)	-1.32
132	GLI4 (GeneID 2738)	-1.47
133	ENDOU (GeneID 8909)	0.78
134	ENDOU (GeneID 8909)	-0.26
135	ENDOU (GeneID 8909)	0.59
136	ENDOU (GeneID 8909)	-0.79
137	LYZL4 (GeneID 131375)	-0.52
138	LYZL4 (GeneID 131375)	-0.93
139	LYZL4 (GeneID 131375)	-1.42
140	LYZL4 (GeneID 131375)	-0.78

Reformatted: entries from further up
target gene,TNF reporter robust z-score
TXNDC2 (GeneID 84203),-1.12
XAGE5 (GeneID 170627),0.5
XAGE5 (GeneID 170627),-0.11
XAGE5 (GeneID 170627),-0.51
XAGE5 (GeneID 170627),-0.84
SDAD1 (GeneID 55153),1.09
SDAD1 (GeneID 55153),0.52
SDAD1 (GeneID 55153),1.21
SDAD1 (GeneID 55153),-0.02
C4A (GeneID 720),-0.91
C4A (GeneID 720),-0.73
C4A (GeneID 720),-1.53 (active)
C4A (GeneID 720),-0.65
